Experimental data from US20230220047A1, “PEPTIDES FOR TREATMENT OF SEPSIS AND CANCER” (NORWEGIAN UNIVERSITY OF SCIENCE AND TECHNOLOGY (NTNU), priority 2020, published 2023).
No constants are given. Whether binding was seen depends on the method and setting. For some assays here: In cells and extracts the contact can be indirect. Some results given as binding are weak or reduced against the parent protein; the word gives no strength. For some assays here: Sequences can lack the tags named with a protein.

Protein sequences, listed by entry. Tags and fused reporters are not part of them.
UniProt P58753: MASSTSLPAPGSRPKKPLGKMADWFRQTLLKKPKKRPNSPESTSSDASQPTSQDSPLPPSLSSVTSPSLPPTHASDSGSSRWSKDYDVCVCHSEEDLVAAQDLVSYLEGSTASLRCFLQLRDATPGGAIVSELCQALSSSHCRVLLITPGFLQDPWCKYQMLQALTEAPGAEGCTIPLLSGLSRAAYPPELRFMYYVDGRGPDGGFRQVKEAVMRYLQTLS

How the values were obtained:
[1] = molecular target: Mal^Flag (human Mal with Flag tag, overexpressed in HEK293T cells) (human) (UniProt P58753); assay: biotinylated peptide on NeutrAvidin beads, lysate of HEK293T cells overexpressing Mal^Flag, 300 mM NaCl and 1% Triton X100
[2] = molecular target: T1, TAK1 (endogenous, human) (human) (UniProt O43318); assay: biotinylated peptide on NeutrAvidin beads, lysates of LPS-stimulated primary human macrophages
T1 sequence (looked up): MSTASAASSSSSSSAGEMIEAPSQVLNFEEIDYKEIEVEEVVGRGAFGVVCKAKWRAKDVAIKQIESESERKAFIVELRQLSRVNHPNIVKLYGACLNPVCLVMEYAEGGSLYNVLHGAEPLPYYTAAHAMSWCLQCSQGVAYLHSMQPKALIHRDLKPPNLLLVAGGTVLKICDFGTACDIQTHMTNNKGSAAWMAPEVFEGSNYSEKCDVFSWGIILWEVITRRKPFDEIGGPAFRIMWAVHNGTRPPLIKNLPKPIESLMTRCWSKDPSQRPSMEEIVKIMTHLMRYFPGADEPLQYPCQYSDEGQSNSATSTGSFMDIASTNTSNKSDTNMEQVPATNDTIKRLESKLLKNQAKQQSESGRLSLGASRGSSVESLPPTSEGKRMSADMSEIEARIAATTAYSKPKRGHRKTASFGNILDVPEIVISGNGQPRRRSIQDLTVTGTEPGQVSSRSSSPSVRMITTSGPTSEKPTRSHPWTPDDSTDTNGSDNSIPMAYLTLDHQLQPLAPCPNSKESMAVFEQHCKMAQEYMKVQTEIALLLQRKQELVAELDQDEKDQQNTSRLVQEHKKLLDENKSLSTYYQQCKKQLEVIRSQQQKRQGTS

[3] = molecular target: Mal^Flag (human Mal with Flag tag, overexpressed in HEK293T cells) (human) (UniProt P58753); assay: biotinylated peptide on NeutrAvidin beads, lysate of HEK293T cells overexpressing Mal^Flag
[4] = molecular target: T2, SLAMF1 (human, no tag stated; overexpressed in HEK293T cells or endogenous in primary human macrophages) (human) (UniProt Q13291); assay: co-precipitation, not described further (data not shown)
T2 sequence (looked up): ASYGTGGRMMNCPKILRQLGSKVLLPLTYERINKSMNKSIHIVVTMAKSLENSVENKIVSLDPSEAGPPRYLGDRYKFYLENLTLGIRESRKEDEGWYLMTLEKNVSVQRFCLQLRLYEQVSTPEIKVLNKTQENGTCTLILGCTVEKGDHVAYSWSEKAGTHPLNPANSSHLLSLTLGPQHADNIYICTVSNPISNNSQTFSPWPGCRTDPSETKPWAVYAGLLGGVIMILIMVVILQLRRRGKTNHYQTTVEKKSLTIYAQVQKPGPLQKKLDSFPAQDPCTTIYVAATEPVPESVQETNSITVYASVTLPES

[5] = molecular target: T1, TAK1 (endogenous, human) (human); assay: biotinylated peptide on NeutrAvidin beads, lysates of LPS-stimulated primary human macrophages, Western blot; within a complex

Measured: binding

ITVYASVTLTGRQIKIWFQNRRMKWKK (C-terminally biotinylated) [Pep7-Penetratin-biotin (C-terminally biotinylated P7-Pen)]
binds: all assays above
